Measured values taken from the supplement of paper PMC10849652.
The other results are listed elsewhere or left out.

Protein sequences, listed by entry. Tags and fused reporters are not part of them. Lines headed by an entry give the natural chain unless they say otherwise; changes in a name come on top.
UniProt Q8NC56: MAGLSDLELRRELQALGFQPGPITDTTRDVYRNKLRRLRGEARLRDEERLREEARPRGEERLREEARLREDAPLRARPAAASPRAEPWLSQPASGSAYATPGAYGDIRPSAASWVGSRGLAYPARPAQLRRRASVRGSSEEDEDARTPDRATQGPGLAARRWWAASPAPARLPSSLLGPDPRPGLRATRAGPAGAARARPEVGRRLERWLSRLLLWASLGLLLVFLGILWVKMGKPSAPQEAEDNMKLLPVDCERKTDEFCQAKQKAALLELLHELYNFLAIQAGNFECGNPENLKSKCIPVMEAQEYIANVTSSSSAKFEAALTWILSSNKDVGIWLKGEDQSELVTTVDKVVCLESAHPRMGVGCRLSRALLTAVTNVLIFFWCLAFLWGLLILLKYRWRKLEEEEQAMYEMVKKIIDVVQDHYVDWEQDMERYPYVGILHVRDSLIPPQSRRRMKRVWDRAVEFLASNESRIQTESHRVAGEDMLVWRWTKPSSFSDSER
UniProt P07942: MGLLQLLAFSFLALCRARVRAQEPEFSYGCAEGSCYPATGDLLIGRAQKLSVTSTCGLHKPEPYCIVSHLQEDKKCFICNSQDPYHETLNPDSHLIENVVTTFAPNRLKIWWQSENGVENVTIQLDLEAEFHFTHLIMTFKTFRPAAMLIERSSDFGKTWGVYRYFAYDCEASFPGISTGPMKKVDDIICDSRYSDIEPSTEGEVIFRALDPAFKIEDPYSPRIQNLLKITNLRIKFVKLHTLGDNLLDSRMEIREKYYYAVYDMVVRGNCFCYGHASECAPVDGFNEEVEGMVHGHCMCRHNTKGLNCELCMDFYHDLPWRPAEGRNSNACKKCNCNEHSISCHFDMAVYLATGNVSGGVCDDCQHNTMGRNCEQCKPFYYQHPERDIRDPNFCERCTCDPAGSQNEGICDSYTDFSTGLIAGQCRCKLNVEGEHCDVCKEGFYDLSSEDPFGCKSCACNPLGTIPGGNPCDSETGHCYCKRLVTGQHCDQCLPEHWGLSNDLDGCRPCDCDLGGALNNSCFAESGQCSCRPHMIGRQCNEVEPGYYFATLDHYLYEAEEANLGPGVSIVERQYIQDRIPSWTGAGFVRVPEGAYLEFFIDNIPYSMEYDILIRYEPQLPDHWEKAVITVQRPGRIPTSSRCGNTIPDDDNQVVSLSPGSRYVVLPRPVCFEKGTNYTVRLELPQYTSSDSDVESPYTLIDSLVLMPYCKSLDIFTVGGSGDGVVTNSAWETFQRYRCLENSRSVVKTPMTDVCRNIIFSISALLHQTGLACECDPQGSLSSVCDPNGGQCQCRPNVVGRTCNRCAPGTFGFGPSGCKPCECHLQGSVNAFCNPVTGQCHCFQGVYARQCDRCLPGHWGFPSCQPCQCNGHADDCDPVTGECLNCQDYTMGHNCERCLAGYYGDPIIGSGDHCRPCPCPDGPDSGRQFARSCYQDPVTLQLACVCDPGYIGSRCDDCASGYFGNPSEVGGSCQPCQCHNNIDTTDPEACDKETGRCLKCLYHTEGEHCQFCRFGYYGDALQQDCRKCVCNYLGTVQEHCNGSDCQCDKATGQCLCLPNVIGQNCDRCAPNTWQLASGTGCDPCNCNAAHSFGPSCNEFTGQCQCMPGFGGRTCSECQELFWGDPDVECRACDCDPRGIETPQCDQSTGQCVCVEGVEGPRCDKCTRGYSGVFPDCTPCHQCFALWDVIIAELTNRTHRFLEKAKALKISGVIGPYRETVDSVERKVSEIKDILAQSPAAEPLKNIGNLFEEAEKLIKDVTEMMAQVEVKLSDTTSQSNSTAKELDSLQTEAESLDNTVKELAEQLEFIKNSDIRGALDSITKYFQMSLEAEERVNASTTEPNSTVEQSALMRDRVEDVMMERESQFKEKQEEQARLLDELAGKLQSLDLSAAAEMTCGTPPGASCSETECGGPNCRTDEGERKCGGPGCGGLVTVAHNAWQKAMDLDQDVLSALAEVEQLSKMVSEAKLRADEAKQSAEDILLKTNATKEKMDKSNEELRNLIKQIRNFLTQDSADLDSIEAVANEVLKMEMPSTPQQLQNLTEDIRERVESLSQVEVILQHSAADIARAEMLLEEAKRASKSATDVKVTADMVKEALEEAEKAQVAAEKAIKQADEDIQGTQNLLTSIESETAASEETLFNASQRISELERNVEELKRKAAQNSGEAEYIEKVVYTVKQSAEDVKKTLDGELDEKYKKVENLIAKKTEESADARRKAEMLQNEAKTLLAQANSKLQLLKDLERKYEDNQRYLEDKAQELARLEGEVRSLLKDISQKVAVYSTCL
UniProt Q9NS86: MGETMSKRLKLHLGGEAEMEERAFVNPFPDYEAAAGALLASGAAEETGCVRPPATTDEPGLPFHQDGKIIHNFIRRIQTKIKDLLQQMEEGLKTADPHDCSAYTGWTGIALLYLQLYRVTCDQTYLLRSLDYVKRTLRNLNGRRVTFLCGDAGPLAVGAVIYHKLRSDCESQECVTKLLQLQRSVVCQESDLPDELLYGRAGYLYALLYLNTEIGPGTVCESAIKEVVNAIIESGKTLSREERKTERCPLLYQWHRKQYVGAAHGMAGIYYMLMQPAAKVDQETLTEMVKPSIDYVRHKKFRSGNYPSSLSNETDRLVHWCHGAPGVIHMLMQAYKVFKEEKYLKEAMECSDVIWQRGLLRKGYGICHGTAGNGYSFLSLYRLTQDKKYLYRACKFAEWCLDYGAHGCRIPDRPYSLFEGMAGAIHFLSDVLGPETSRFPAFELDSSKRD
UniProt O14910: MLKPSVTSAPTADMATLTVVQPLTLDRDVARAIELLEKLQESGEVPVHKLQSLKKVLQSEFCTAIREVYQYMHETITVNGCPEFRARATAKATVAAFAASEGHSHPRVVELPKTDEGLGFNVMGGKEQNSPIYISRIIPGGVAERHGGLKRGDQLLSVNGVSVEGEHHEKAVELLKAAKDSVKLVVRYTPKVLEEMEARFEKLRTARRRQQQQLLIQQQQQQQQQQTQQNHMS
UniProt Q03252: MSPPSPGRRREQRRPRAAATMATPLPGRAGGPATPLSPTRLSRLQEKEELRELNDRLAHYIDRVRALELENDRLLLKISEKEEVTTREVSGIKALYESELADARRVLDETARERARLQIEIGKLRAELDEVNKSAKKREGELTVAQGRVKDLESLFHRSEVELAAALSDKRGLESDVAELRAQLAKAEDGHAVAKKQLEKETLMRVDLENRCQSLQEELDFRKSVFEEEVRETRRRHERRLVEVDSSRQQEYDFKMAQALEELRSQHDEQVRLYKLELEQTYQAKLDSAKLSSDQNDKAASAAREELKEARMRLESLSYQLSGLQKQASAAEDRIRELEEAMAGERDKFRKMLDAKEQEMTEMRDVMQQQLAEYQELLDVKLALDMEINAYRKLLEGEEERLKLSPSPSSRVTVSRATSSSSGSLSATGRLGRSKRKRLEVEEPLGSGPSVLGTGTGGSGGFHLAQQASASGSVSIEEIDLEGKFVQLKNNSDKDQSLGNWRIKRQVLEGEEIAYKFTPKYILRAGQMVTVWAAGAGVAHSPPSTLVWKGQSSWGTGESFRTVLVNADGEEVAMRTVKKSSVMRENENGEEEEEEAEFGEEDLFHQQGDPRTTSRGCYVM
UniProt P09382, whole entry, looked up: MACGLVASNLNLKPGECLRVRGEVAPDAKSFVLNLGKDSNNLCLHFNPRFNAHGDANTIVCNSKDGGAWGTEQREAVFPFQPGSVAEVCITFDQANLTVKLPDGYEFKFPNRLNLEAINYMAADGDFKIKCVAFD
UniProt Q9P2J5: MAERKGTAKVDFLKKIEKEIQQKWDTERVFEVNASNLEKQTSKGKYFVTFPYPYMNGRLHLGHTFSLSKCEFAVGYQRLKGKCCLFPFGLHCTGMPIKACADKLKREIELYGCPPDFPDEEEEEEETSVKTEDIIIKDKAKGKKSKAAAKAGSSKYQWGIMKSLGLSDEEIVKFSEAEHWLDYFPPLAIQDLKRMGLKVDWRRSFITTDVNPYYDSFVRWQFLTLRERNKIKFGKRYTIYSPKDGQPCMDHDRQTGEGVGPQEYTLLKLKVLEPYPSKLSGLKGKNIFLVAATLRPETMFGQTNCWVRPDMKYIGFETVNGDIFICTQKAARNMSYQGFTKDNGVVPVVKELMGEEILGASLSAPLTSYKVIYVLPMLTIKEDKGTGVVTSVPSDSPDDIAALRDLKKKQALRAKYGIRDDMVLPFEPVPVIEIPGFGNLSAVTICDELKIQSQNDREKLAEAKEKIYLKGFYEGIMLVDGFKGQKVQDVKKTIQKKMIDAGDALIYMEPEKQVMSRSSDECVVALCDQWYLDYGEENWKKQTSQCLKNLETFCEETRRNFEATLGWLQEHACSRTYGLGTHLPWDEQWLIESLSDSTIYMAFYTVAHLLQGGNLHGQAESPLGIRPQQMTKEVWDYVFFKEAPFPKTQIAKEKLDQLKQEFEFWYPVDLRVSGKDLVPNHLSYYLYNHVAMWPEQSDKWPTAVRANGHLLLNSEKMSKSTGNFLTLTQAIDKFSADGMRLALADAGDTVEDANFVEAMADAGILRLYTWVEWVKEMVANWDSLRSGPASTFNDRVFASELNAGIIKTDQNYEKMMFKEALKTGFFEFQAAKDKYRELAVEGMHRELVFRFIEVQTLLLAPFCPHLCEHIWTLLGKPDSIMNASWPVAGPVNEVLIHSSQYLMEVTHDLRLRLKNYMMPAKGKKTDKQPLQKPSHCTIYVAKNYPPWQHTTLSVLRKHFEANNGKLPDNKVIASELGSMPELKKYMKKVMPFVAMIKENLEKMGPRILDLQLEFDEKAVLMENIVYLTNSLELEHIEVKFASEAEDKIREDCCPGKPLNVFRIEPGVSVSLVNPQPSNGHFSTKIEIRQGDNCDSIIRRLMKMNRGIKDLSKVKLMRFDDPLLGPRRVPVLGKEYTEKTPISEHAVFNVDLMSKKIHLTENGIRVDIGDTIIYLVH
UniProt Q9NUP9: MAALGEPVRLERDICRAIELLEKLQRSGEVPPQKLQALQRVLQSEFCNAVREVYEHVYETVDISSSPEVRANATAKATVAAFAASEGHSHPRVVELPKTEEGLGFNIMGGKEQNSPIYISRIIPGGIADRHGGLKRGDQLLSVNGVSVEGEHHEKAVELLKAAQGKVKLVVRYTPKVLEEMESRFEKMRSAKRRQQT
UniProt Q9UHB6: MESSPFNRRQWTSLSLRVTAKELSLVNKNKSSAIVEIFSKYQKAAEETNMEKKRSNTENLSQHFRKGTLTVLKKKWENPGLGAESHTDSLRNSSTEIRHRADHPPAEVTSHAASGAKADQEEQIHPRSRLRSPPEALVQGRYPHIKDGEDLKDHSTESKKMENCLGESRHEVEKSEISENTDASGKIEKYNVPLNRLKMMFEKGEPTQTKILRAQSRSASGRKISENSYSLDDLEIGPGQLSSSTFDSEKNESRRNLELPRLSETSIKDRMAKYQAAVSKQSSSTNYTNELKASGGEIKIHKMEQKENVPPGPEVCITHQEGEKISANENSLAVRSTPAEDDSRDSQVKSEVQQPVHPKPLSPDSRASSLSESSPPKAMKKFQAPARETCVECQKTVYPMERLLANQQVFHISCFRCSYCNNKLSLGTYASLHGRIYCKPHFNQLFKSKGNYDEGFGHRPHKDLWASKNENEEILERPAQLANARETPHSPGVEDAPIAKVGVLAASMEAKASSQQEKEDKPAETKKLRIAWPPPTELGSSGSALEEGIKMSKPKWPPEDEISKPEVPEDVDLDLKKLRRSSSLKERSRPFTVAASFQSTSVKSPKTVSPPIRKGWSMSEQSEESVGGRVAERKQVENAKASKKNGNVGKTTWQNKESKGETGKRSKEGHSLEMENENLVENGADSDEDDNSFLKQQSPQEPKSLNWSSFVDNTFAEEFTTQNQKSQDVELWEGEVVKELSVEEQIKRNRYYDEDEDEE
UniProt O43766: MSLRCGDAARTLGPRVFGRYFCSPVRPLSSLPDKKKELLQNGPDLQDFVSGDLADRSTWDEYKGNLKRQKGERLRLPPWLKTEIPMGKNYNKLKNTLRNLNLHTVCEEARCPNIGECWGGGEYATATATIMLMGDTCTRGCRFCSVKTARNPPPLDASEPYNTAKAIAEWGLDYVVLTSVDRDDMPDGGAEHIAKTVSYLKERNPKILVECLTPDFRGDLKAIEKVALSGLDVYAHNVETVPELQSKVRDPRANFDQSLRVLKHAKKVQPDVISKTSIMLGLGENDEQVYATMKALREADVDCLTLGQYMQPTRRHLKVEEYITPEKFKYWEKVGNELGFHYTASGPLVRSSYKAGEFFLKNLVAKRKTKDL

Tests used:
Experiment in all cases: log2 fold change, soluble protein after heating vs DMSO (PISA); higher = thermal stabilisation; K562 cells, 10 uM, 30 min; active = over 0.2 and 3.5 SD of the protein, either way, in both replicates (recomputed)
[1] = compound: CC1=C(C=C(C=C1)NC(=O)C2=CC(=CC=C2)C(C)(C)C#N)NC3=CC4=C(C=C3)N=CN(C4=O)C
How it was run: (§1)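 Thermal stability values are relative to control samples and come from duplicates. They are expressed as log2 fold changes. For measurement, K562 cells (2×10^6 cells/mL) received 10 μM compound for 30 min, and aliquots were heated for 3 min over 48°C-58°C, pooled, and extracted at 4°C in PBS with 0.5% NP-40. Soluble protein, the supernatant after 21,000xg for 90 min, was quantified by TMTpro 16plex LC-MS/MS with equalised channel sums.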

[2] = compound: CC1=C(C=C(C=C1)NC(=O)C2=CC(=CC=C2)N(C)C)NC(=O)C3=CC=C(C=C3)O
How it was run: as §1

[3] = compound: CC1=CC=C(C=C1)SC2=C3C=C(SC3=CN=C2)C(=O)N
How it was run: as §1

[4] = compound: CC1=NC(=CC=C1)C2=C(N=C(N2)C(C)(C)C)C3=CC4=NC=CN=C4C=C3
How it was run: as §1

Nexturastat A = compound: CCCCN(Cc1ccc(C(=O)NO)cc1)C(=O)Nc1ccccc1 [Nexturastat A]
How it was run: as §1

vemurafenib = compound: CCCS(=O)(=O)Nc1ccc(F)c(C(=O)c2c[nH]c3ncc(-c4ccc(Cl)cc4)cc23)c1F [vemurafenib]
How it was run: as §1

[5] = compound: CCCS(=O)(=O)Nc1ccc(F)c(C(=O)c2c[nH]c3ncc(Cl)cc23)c1F
How it was run: as §1

[6] = compound: CCCc1cc(C)[nH]c(=O)c1CNC(=O)c1cc(-c2ccnc(N3CCN(C)CC3)c2)cc2c1cnn2C(C)C
How it was run: as §1

givinostat = compound: CCN(CC)Cc1ccc2cc(COC(=O)Nc3ccc(C(=O)NO)cc3)ccc2c1 [givinostat]
How it was run: as §1

barasertib = compound: CCN(CCCOc1ccc2c(Nc3cc(CC(=O)Nc4cccc(F)c4)[nH]n3)ncnc2c1)CCOP(=O)(O)O [barasertib]
How it was run: as §1

[7] = compound: CC[C@@H]1C(=O)N(C)c2cnc(Nc3ccc(C(=O)NC4CCN(C)CC4)cc3OC)nc2N1C1CCCC1
How it was run: as §1

volasertib = compound: CC[C@@H]1C(=O)N(C)c2cnc(Nc3ccc(C(=O)N[C@H]4CC[C@H](N5CCN(CC6CC6)CC5)CC4)cc3OC)nc2N1C(C)C [volasertib]
How it was run: as §1

[8] = compound: CC[C@H](C)N1C=C(C2=C(C=C(C=C21)C3=CN=C(C=C3)N4CCNCC4)C(=O)NCC5=C(C=C(NC5=O)C)C)C
How it was run: as §1

epoxomicin = compound: CC[C@H](C)[C@@H](C(=O)N[C@@H]([C@@H](C)O)C(=O)N[C@@H](CC(C)C)C(=O)[C@]1(CO1)C)NC(=O)[C@H]([C@@H](C)CC)N(C)C(=O)C [epoxomicin]
How it was run: as §1

[9] = compound: CCn1cc(-c2ccnc3[nH]c(-c4cccc(CN(C)C)c4)cc23)c(-c2ccc(NC(=O)N(C)C)cc2)n1
How it was run: as §1

[10] = compound: CN(C)CC(=O)Nc1ccc2[nH]c(=O)c3ccccc3c2c1
How it was run: as §1

[11] = compound: CN1C2=C(C3=C1C(=O)N(N=C3)CC4=CC(=CC=C4)N)SC(=C2)S(=O)C
How it was run: as §1

[12] = compound: CN1CCC(CNc2ccc3ncc(-c4cccc(OC(F)(F)F)c4)n3n2)CC1
How it was run: as §1

[13] = compound: CCn1c(C(=O)N(C2CC2)C2CC2)cc2c3c(ncn3C)c(Nc3cc(C)n(C)n3)nc21
How it was run: as §1

rosiglitazone = compound: CN(CCOC1=CC=C(C=C1)C[C@H]2C(=O)NC(=O)S2)C3=CC=CC=N3 (racemic) [rosiglitazone]
How it was run: as §1

Measured: log2 fold change

LEMD2 (UniProt Q8NC56)
active: volasertib -0.422 | [12] -0.338
inactive: [1] -0.068 | [2] -0.02 | [3] 0.038 | [4] 0.051 | Nexturastat A -0.002 | vemurafenib -0.001 | [5] 0.045 | [6] 0.002 | givinostat -0.022 | barasertib 0.017 | [7] -0.212 | [8] 0.034 | epoxomicin -0.002 | [9] 0.028 | [10] 0.091 | [11] -0.006

LPIN1 isoform 7 (UniProt Q14693)
inactive: [1] -0.022 | [2] 0.018 | [3] -0.022 | [4] -0.026 | Nexturastat A -0.023 | vemurafenib -0.004 | [5] 0.015 | [6] 0.029 | givinostat 0.012 | barasertib 0.023 | [7] 0.06 | volasertib -0.002 | [8] 0.063 | epoxomicin 0.098 | [9] -0.045 | [10] 0.012 | [11] 0.008 | [12] -0.016

LAMB1 (UniProt P07942)
inactive: [1] -0.019 | [2] 0.006 | [3] 0.013 | [4] 0.007 | Nexturastat A -0.009 | vemurafenib -0.013 | [5] -0.036 | [6] 0.021 | givinostat 0.023 | barasertib 0.003 | [7] -0.012 | volasertib 0.004 | [8] -0.043 | epoxomicin 0.005 | [13] -0.016 | [9] -0.057 | [10] -0.029 | rosiglitazone 0.092 | [11] -0.063 | [12] 0.057

LANCL2 (UniProt Q9NS86)
inactive: [1] -0.018 | [2] 0.011 | [3] -0.001 | [4] 0.002 | Nexturastat A -0.002 | vemurafenib -0.009 | [5] -0.062 | [6] -0.033 | givinostat -0.065 | barasertib -0.004 | [7] 0.023 | volasertib 0.07 | [8] -0.034 | epoxomicin 0.02 | [13] -0.01 | [9] 0.009 | [10] -0.02 | rosiglitazone -0.012 | [11] -0.045 | [12] 0.027

LIN7A (UniProt O14910)
inactive: [1] -0.042 | [2] -0.008 | [3] 0.122 | [4] -0.058 | Nexturastat A -0.012 | vemurafenib -0.038 | [5] 0.112 | [6] -0.031 | givinostat -0.034 | barasertib 0.002 | [7] 0.12 | volasertib 0.028 | [8] 0.056 | epoxomicin 0.072 | [13] 0.028 | [10] 0.033 | rosiglitazone 0.026 | [11] -0.052

Two records picked at random from the list so far, as already listed:
LAMB1 (UniProt P07942)
inactive: [1] -0.019 | [2] 0.006 | [3] 0.013 | [4] 0.007 | Nexturastat A -0.009 | vemurafenib -0.013 | [5] -0.036 | [6] 0.021 | givinostat 0.023 | barasertib 0.003 | [7] -0.012 | volasertib 0.004 | [8] -0.043 | epoxomicin 0.005 | [13] -0.016 | [9] -0.057 | [10] -0.029 | rosiglitazone 0.092 | [11] -0.063 | [12] 0.057

LPIN1 isoform 7 (UniProt Q14693)
inactive: [1] -0.022 | [2] 0.018 | [3] -0.022 | [4] -0.026 | Nexturastat A -0.023 | vemurafenib -0.004 | [5] 0.015 | [6] 0.029 | givinostat 0.012 | barasertib 0.023 | [7] 0.06 | volasertib -0.002 | [8] 0.063 | epoxomicin 0.098 | [9] -0.045 | [10] 0.012 | [11] 0.008 | [12] -0.016

Later entries

LRBA (UniProt P50851)
active: volasertib -0.221
inactive: [1] -0.011 | [2] 0 | [3] -0.011 | [4] 0.001 | Nexturastat A -0.046 | vemurafenib 0.01 | [5] 0.031 | [6] -0.025 | givinostat 0.008 | barasertib 0.038 | [7] -0.05 | [8] 0.034 | epoxomicin 0.017 | [9] -0.074 | [10] 0.008 | [11] -0.057 | [12] -0.139

LIMK2 isoform 3 (UniProt P53671)
inactive: [1] -0.195 | [2] 0.016 | [3] -0.197 | [4] 0.045 | Nexturastat A 0 | vemurafenib -0.224 | [5] -0.154 | [6] -0.527 | givinostat 0.144 | barasertib 0.035 | [7] -0.014 | volasertib -0.086 | [8] -0.167 | epoxomicin 0.007 | [13] -0.011 | [9] 0.062 | [10] -0.119 | rosiglitazone 0.041 | [11] -0.039 | [12] -0.186

LEO1 (UniProt Q8WVC0)
active: volasertib -0.402
inactive: [1] -0.086 | [2] -0.113 | [3] 0 | [4] -0.075 | Nexturastat A 0.109 | vemurafenib -0.025 | [5] 0.033 | [6] 0.029 | givinostat 0.118 | barasertib 0.032 | [7] -0.021 | [8] -0.013 | epoxomicin -0.001 | [9] -0.051 | [10] 0.121 | [11] -0.033 | [12] -0.048

LMNB2 (UniProt Q03252)
inactive: [1] -0.022 | [2] 0.015 | [3] -0.025 | [4] 0.063 | Nexturastat A -0.04 | vemurafenib 0.019 | [5] 0.045 | [6] -0.014 | givinostat 0.047 | barasertib 0.039 | [7] 0.027 | volasertib -0.077 | [8] 0.024 | epoxomicin 0.028 | [9] 0.043 | [10] -0.033 | [11] -0.01 | [12] 0.014

LMF2 (UniProt Q9BU23)
active: volasertib -0.332
inactive: [1] 0.009 | [2] -0.07 | [3] 0.025 | [4] -0.078 | Nexturastat A -0.022 | vemurafenib 0.067 | [5] -0.022 | [6] 0.016 | givinostat 0.033 | barasertib -0.002 | [7] -0.109 | [8] -0.027 | epoxomicin 0 | [9] 0.12 | [10] -0.017 | [11] -0.007 | [12] -0.035

LGALS1 (UniProt P09382)
inactive: [1] 0.046 | [2] -0.059 | [3] 0.024 | [4] -0.016 | Nexturastat A 0.061 | vemurafenib 0.012 | [5] -0.005 | [6] -0.013 | givinostat -0.035 | barasertib -0.001 | [7] -0.005 | volasertib 0.108 | [8] -0.031 | epoxomicin -0.007 | [13] 0.057 | [9] -0.003 | [10] 0.017 | rosiglitazone -0.009 | [11] -0.041 | [12] 0.138

LARP7 isoform 3 (UniProt Q4G0J3)
inactive: [1] -0.011 | [2] 0.054 | [3] -0.03 | [4] -0.053 | Nexturastat A 0.016 | vemurafenib 0.027 | [5] 0.045 | [6] 0.004 | givinostat -0.03 | barasertib 0 | [7] -0.047 | volasertib -0.155 | [8] 0.051 | epoxomicin -0.081 | [9] -0.032 | [10] 0.064 | [11] 0.014 | [12] -0.075

LARS (UniProt Q9P2J5)
inactive: [1] 0.015 | [2] 0.022 | [3] -0.038 | [4] -0.067 | Nexturastat A 0.308 | vemurafenib -0.019 | [5] -0.038 | [6] 0.15 | givinostat 0.073 | barasertib -0.026 | [7] 0.092 | volasertib 0.023 | [8] 0.047 | epoxomicin -0.165 | [13] -0.042 | [9] 0.079 | [10] 0.008 | rosiglitazone -0.062 | [11] 0.266 | [12] 0.031

LIN7C (UniProt Q9NUP9)
inactive: [1] -0.043 | [2] 0.003 | [3] -0.019 | [4] -0.008 | Nexturastat A 0.036 | vemurafenib -0.002 | [5] -0.021 | [6] 0.01 | givinostat -0.015 | barasertib 0.007 | [7] 0.028 | volasertib -0.001 | [8] -0.018 | epoxomicin 0.056 | [13] -0.019 | [9] -0.018 | [10] -0.022 | rosiglitazone -0.006 | [11] -0.111 | [12] -0.048

LIMA1 isoform 4 (UniProt Q9UHB6)
inactive: [1] -0.082 | [2] 0.133 | [3] -0.014 | [4] 0.033 | Nexturastat A 0.004 | vemurafenib 0.061 | [5] 0.011 | [6] -0.033 | givinostat 0.032 | barasertib -0.025 | [7] -0.006 | volasertib -0.115 | [8] -0.021 | epoxomicin 0.003 | [9] 0 | [10] -0.053 | [11] -0.006 | [12] 0.086

LARP4B (UniProt Q92615)
inactive: [1] 0.055 | [2] 0.032 | [3] 0.016 | [4] 0.001 | Nexturastat A 0.127 | vemurafenib 0.016 | [5] 0.022 | [6] 0.05 | givinostat 0.061 | barasertib -0.025 | [7] 0.025 | volasertib -0.15 | [8] 0.061 | epoxomicin -0.037 | [9] 0.073 | [10] 0.034 | [11] 0.096 | [12] -0.218

LIAS (UniProt O43766)
inactive: [1] -0.044 | [2] 0.119 | [3] -0.128 | [4] -0.002 | Nexturastat A -0.057 | vemurafenib -0.013 | [5] -0.13 | [6] -0.01 | givinostat -0.06 | barasertib -0.001 | [7] 0.051 | volasertib 0.055 | [8] -0.021 | epoxomicin -0.011 | [9] -0.044 | [10] -0.043 | [11] -0.052 | [12] 0.057
